{"sequences": {"note": "Protein sequences, listed by entry. Tags and fused reporters are not part of them.", "UniProt P20272, whole entry": "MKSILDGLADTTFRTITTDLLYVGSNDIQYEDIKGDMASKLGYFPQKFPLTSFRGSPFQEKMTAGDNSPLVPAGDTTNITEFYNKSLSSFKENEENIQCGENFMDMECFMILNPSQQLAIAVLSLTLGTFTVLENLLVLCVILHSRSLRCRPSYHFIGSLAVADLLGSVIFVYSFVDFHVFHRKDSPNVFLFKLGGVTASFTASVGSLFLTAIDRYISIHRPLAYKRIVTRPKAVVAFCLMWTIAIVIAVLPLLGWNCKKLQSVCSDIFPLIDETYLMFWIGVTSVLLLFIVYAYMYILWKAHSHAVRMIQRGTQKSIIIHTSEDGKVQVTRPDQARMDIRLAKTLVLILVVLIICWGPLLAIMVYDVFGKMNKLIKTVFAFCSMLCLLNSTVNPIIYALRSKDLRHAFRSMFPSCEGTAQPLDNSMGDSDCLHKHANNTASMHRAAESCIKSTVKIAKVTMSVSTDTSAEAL"}, "source": "paper PMC3253719", "about": "(Anesthesia and Analgesia, 2010)", "biological_target": "rat CB1 receptor (Rattus norvegicus, UniProt P20272)", "assay": "Radioligand competitive binding assay, rat CB1"}
{"smiles": "Cc1c(C(=O)NN2CCCCC2)nn(-c2ccc(Cl)cc2Cl)c1-c1ccc(I)cc1", "note": "[AM251, N-(piperidin-1-yl)-5-(4-iodophenyl)-1-(2,4-dichlorophenyl)-4-methyl-1H-pyrazole-3-carboxamide, reference compound]", "values": [{"measurement": "Ki", "value": "580 ± 40", "unit": "pM"}]}
